Test results taken from article PMC8556396, “Statin-mediated disruption of Rho GTPase prenylation and activity inhibits respiratory syncytial virus infection” (Communications Biology, 2021).

Tested on: RSV-GFP
Experiment: microbe, parasite or virus in culture
Format: cell-based
Conditions: human respiratory syncytial virus, HEp-2, read-out: RSV-GFP inhibition (%)
Procedure: The following morning, cells were washed twice with serum-free EMEM and treated with RSV-GFP (MOI 0.5) in a minimal volume of serum-free media for 90 min under frequent agitation. Unbound virus was then removed and replaced with fresh serum-containing EMEM. All drug additions were performed 2 h post-viral exposure, unless otherwise stated.
Automated quantification of infection rates from fluorescent images were performed in CellProfiler (v2.2.0)[86]. Major steps in the image analysis pipeline included: (1) background subtraction and smoothing, (2) segmentation of nuclei, (3) segmentation of GFP-fluorescent area, (4) object masking, and (5) measurement of nuclear number, size, and intensity. Infection rate was quantified from the ratio of nuclei within GFP-fluorescent area to the total number of nuclei (Fig. 1b). This method of analysis accounts for in vitro syncytium formation induced by RSV, whereby a single infected cell may arise from the fusion of multiple cells. Mean nuclear fluorescent intensity and size was quantified as a measure of cell viability.
The MicroSource […] Collection (Discovery Systems Inc.) consisting of 2400 compounds was screened using the previously outlined RSV-GFP infection assay protocol. […] Z-factors were calculated on a per-plate basis to monitor assay quality.

CCCCCCCCCCCCCCCC[n+]1ccccc1 [Cetylpyridinium chloride]
inhibition at 10 µM: 55.8%
